Our source for the binding values is article PMC9616950, “A toxin-deformation dependent inhibition mechanism in the T7SS toxin-antitoxin system of Gram-positive bacteria” (Nature Communications, 2022).

The target in this experiment is His-YezG (His-SUMO-tagged YezG) (Bacillus subtilis). Kind of experiment: pull-down; His-SUMO-tagged protein on Ni-NTA beads with untagged protein (0.16 mM : 0.2 mM); 25 mM Tris-HCl pH 8.0, 1 M NaCl, 24 °C, 30 min; Coomassie-stained SDS-PAGE; both purified.

These are yes or no findings as the source states them, for the method shown. Binding can be weak; no strength is given.

B1: YeeF_(556-669) (domain or fragment, UniProt O31506 556-669)
chain: EAKRNQYAQTNAGKPQDRKPDDDGGHLIATQFKGSGQFDNIVPMNSQINRSGGKWYEMEQEWAKALSKKPPKKVAVQIEPVYSGDSLRPSYFDVTYKIGSRKEISVSIKNQPGG
For the molecule B1, the binding entry is recorded as “binds”. Consider VKYGEHFARWSRKKVLKPNIIYKTKEGYTYTTDNYGRITSVKADLQLG (domain or fragment, UniProt O31506 508-555) [YeeF_(508-555)], for which the binding entry is “binds”.
